# Data reported in article PMC10085706.
# These are yes or no findings as the source states them, for the method shown. Some results given as binding are weak or reduced against the parent protein; the word gives no strength.
# T1: ribosomal protein uL16 of the Cutibacterium acnes 50S subunit (Cutibacterium acnes (endogenous in ATCC 11827 cells)) (UniProt Q6A6N3)
# T1 sequence: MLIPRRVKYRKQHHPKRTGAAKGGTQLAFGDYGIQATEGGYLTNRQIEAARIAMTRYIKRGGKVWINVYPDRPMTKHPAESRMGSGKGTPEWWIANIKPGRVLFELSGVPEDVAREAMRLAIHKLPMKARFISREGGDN
# B1: ribosomal protein bL25 of the Cutibacterium acnes 50S subunit (protein, UniProt Q6AAC8 1-205)
# chain: MADIIHLKAEQRTEFGKGAARRIRRDDKVPAVMYGHDHDPIHVTLDGHATLLALRTENPLLSIEIEGQKPMLALPKDVQRDVLKGFVRHVDLLTVRRGEKVDVNVALRITGESAPGTIAMTEFNEIEVQADLLNIPEVIEIDVTGLEAGTTIYLGDLKLPEGTSLLGDAEDVAATVAFPETEPVEDEESAGEDAQGESEEKAAKE
# Target: T1, ribosomal protein uL16 of the Cutibacterium acnes 50S subunit (Cutibacterium acnes (endogenous in ATCC 11827 cells))
# Experiment: cryo-EM structure; re-associated C. acnes 70S ribosomes (0.125 uM) with mRNA, P-site tRNAi-fMet and 200 uM sarecycline; 20 mM Tris-HCl pH 7.4, 60 mM NH4Cl, 10 mM MgCl2; 2.8 Å overall, local refinement 30S body 2.8 Å, 50S 2.6 Å; both purified
binder,measurement,value
B1,binding,binds
